Reference: PubChem BioAssay AID1487 (National Center for Advancing Translational Sciences (NCATS), 2009)
The campaign covered roughly 200,000 compounds. About 25 (0.01%) were called active. The shares of active, inactive and inconclusive entries below differ from those in the screen. The call rests on the fitted dose curve; in most records, active means well fitted inhibition curve with a large enough effect in the signal ratio, with a control signal flat (not every such curve was filed as active); inconclusive means small, poorly fitted or top-dose-only effect, or effect the other way, or a change in a side signal; inactive means flat fitted curve, though single readings scatter; the % refers to the signal ratio. Where the call is inconclusive, the potency comes from a doubtful curve fit.

assay: qHTS Assay for Modulators of Lamin A Splicing; conditions: HeLa LMNA splicing GFP/RFP minigene ratio, 48 h; ratio change, negative = inhibition: at 46.1 µM (top of the series) unless noted
Summary of the method: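 Read-out is the ratio of GFP to DsRed2 object intensity, acquired by 488 nm laser-scanning cytometry on HeLa lamin A-EGFP minigene reporter cells. Compound incubation 48 hrs at 37 °C in Opti-MEM with 2% FBS; DMSO 0.5% final.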
On the % scale 0 is the no-effect control and ±100 the full control effect; potency means the concentration at half of the fitted maximal effect.

| Compound | ratio change, negative = inhibition | Potency |
| --- | --- | --- |
| Cc1cccc(NC(=O)c2ccccc2NC(=O)C(C)(C)C)n1 | inconclusive: 4.39% |  |
| Cc1ccccc1CNC(=O)c1ccc(NC(=O)c2nsc3ccccc23)cc1 | inconclusive: 14.1% [at 46 µM] |  |
| Cc1ccc(C(=O)N2CCCC(c3ccc(Cl)cc3)=N2)cc1 | inactive: -8.24% [at 9.22 µM] |  |
| c1csc(C2CCCN2c2nc3nonc3nc2NC2CC2)n1 (configuration not stated) | inconclusive: 33.9% [at 46 µM] |  |
| O=C1c2ccccc2C(=O)N1CCc1nc2ccccc2c(=O)n1Cc1ccco1 | inconclusive: 6.44% |  |
| CCOc1ccc(/C(O)=C2/C(=O)C(=O)N(CCOCCO)C2c2ccccc2)cc1 (configuration not stated) | inactive: 9.48% |  |
| CCOc1ccc(NC(=O)CSc2n[nH]c(N)n2)c([N+](=O)[O-])c1 | inconclusive: 5.9% |  |
| Clc1ccccc1-c1nn2c(Cn3cnc4ccccc43)nnc2s1 | inactive: -5.8% |  |
| O=c1nc(/C=C/c2cc([N+](=O)[O-])ccc2Cl)cc(C(F)(F)F)[nH]1 |  | inconclusive: 11.2 µM [inhibitor, single point] |
| COc1ccc(CCNC(=O)C(=O)Nc2ccc3c(c2)OCO3)cc1OC | inactive: 7.29% [at 46 µM] |  |
| Cc1cc(NC(=O)CN2C(=O)C(C)(C)c3ccccc32)ccc1Br | inconclusive: -23.7% [at 46 µM] |  |
| CCN(C(=O)CSc1nc2ccccc2n1CC(=O)Nc1cccc(C#N)c1)c1ccccc1 | inconclusive: -11.2% [at 46 µM] |  |
| CC1CC1C(=O)OCC(=O)NCc1ccc(Cl)cc1 (configuration not stated) | inactive: 0.487% |  |
| CCCN(c1ccc(C(C)C)cc1)S(=O)(=O)c1c(C)noc1C | inconclusive: 26.2% |  |
| Cc1c(NC(=O)COC(=O)c2ccc[nH]c2=O)c(=O)n(-c2ccccc2)n1C | inactive: -0.525% |  |
| CCN(CC)CCNC(=O)C(=O)NCC1OCCN1S(=O)(=O)c1ccc2c(c1)OCCO2 (configuration not stated) | inconclusive: 18.7% [at 46 µM] |  |
| N=C(N)SCCc1cnc[nH]1 | inconclusive: -12.8% |  |
| CNC[C@H](O)c1cccc(O)c1 | inconclusive: -4.19% |  |
| CCOc1cc(C2C(C(=O)OC(C)C)=C(C)NC3=C2C(=O)CCC3)cc([N+](=O)[O-])c1O (configuration not stated) | inconclusive: -2.39% [at 46 µM] |  |
| Cc1cc(=O)oc2c(CN(CC(C)C)CC(C)C)c(O)ccc12 | inactive: 4.55% |  |
| Cc1ccc(C2CC(=O)N(Cc3ccccc3F)c3c2c(C)nn3-c2nc(C)cc(C)n2)cc1 (configuration not stated) | inconclusive: 21.1% [at 46 µM] |  |

| Compound | ratio change, negative = inhibition | Potency |
| --- | --- | --- |
| O=C1SC(SC(=Nc2ccccc2)Nc2ccccc2)C(=O)N1c1ccccc1 (configuration not stated) | inconclusive: -8.73% |  |
| COc1ccc2[nH]c(CN3CCN(CC(C)C)C(CCO)C3)c(C)c2c1 (configuration not stated) | inconclusive: -30.2% [at 46 µM] |  |
| Cc1cc(N2CCN(C(=O)OC(C)(C)C)CC2)n2ncnc2n1 | inactive: -10.7% |  |
| CC1=C(C(=O)OCC2CCCO2)C(c2cccc(O)c2)NC(=O)N1 (configuration not stated) | inactive: 6.72% |  |
| Cc1cc(C)nc(N/N=C/c2cccc3ccccc23)n1 |  | inconclusive: 25.1 µM [falling, partial curve, poor fit] |
| Cc1cc2cc(CNC(=S)Nc3ccc(OC(F)(F)F)cc3)ccc2[nH]1 | inconclusive: -39% |  |
| COc1ccccc1C(=O)NCCC(=O)Nc1cccnc1 | inconclusive: 12.5% [at 46 µM] |  |
| N#CC(C#N)=C(N)CSc1cccc[n+]1[O-] | inconclusive: -20.2% [at 46 µM] |  |
| O=C(Nc1ccccc1O)/C(=C\c1ccccc1)NC(=O)c1ccccc1 | inconclusive: -0.125% [at 46 µM] |  |
| C[C@](N)(Cc1ccc(O)cc1)C(=O)O | inconclusive: -15.8% |  |
| Cc1sc2nc(CN3CCCC3)nc(Cl)c2c1C |  | inconclusive: 12.6 µM [falling, partial curve] |
| O=c1cc(-c2ccc(O)cc2)oc2cc(O[C@@H]3O[C@H](CO)[C@@H](O)[C@H](O)[C@H]3O[C@@H]3OC[C@](O)(CO)[C@H]3O)cc(O)c12 | inconclusive: -7.59% |  |
| CCCCNC(=O)CCC(=O)Nc1ccc2nc(N3CCCCC3)cc(C)c2c1 | inconclusive: -12.9% [at 46 µM] |  |
| COc1cc(NC(=O)CSc2nc3ccccc3n2-c2ccccc2)c(C)cc1[N+](=O)[O-] | inconclusive: -19.6% |  |
| COc1cc(C2C(C#N)=C(N)Oc3c2ccc2ccccc32)ccc1OCC(=O)Nc1cccc(C)c1 (configuration not stated) | inconclusive: -25.6% |  |
| Fc1ccc(-c2ccnc3nc(-n4cccc4)nn23)cc1 | inconclusive: 6.33% |  |
| CCN(CC)S(=O)(=O)c1ccc2c(c1)[nH]c(=S)n2CC |  | inconclusive: 11.2 µM [inhibitor, partial curve, poor fit] |
| O=C(COc1ccc(Cl)cc1)Nc1nnc(S(=O)(=O)N2CCCCCC2)s1 | inconclusive: -18% [at 46 µM] |  |
| COc1ccccc1N1CCN(C(CNC(=O)C(=O)NCc2cccnc2)c2cccnc2)CC1 (configuration not stated) |  | inconclusive: 35.5 µM [cytotoxic, single point] |
| CC(=O)N(C(C)=O)c1ncc2c([nH]c3ccccc32)c1C#N | inactive: 8.36% |  |
| Nc1c(S(=O)(=O)c2ccccc2)c2nc3ccccc3nc2n1/N=C/c1ccco1 | inconclusive: 28.1% |  |

Molecules listed so far that have a carbonyl joined to an NH by a bond outside any ring:

| Compound | ratio change, negative = inhibition | Potency |
| --- | --- | --- |
| Cc1cccc(NC(=O)c2ccccc2NC(=O)C(C)(C)C)n1 | inconclusive: 4.39% |  |
| Cc1ccccc1CNC(=O)c1ccc(NC(=O)c2nsc3ccccc23)cc1 | inconclusive: 14.1% [at 46 µM] |  |
| CCOc1ccc(NC(=O)CSc2n[nH]c(N)n2)c([N+](=O)[O-])c1 | inconclusive: 5.9% |  |
| COc1ccc(CCNC(=O)C(=O)Nc2ccc3c(c2)OCO3)cc1OC | inactive: 7.29% [at 46 µM] |  |
| Cc1cc(NC(=O)CN2C(=O)C(C)(C)c3ccccc32)ccc1Br | inconclusive: -23.7% [at 46 µM] |  |
| CCN(C(=O)CSc1nc2ccccc2n1CC(=O)Nc1cccc(C#N)c1)c1ccccc1 | inconclusive: -11.2% [at 46 µM] |  |
| CC1CC1C(=O)OCC(=O)NCc1ccc(Cl)cc1 (configuration not stated) | inactive: 0.487% |  |
| Cc1c(NC(=O)COC(=O)c2ccc[nH]c2=O)c(=O)n(-c2ccccc2)n1C | inactive: -0.525% |  |
| CCN(CC)CCNC(=O)C(=O)NCC1OCCN1S(=O)(=O)c1ccc2c(c1)OCCO2 (configuration not stated) | inconclusive: 18.7% [at 46 µM] |  |
| COc1ccccc1C(=O)NCCC(=O)Nc1cccnc1 | inconclusive: 12.5% [at 46 µM] |  |
| O=C(Nc1ccccc1O)/C(=C\c1ccccc1)NC(=O)c1ccccc1 | inconclusive: -0.125% [at 46 µM] |  |
| CCCCNC(=O)CCC(=O)Nc1ccc2nc(N3CCCCC3)cc(C)c2c1 | inconclusive: -12.9% [at 46 µM] |  |
| COc1cc(NC(=O)CSc2nc3ccccc3n2-c2ccccc2)c(C)cc1[N+](=O)[O-] | inconclusive: -19.6% |  |
| COc1cc(C2C(C#N)=C(N)Oc3c2ccc2ccccc32)ccc1OCC(=O)Nc1cccc(C)c1 (configuration not stated) | inconclusive: -25.6% |  |
| O=C(COc1ccc(Cl)cc1)Nc1nnc(S(=O)(=O)N2CCCCCC2)s1 | inconclusive: -18% [at 46 µM] |  |
| COc1ccccc1N1CCN(C(CNC(=O)C(=O)NCc2cccnc2)c2cccnc2)CC1 (configuration not stated) |  | inconclusive: 35.5 µM [cytotoxic, single point] |

Molecules shown so far that have a tert-butyl group:

| Compound | ratio change, negative = inhibition | Potency |
| --- | --- | --- |
| Cc1cccc(NC(=O)c2ccccc2NC(=O)C(C)(C)C)n1 | inconclusive: 4.39% |  |
| Cc1cc(N2CCN(C(=O)OC(C)(C)C)CC2)n2ncnc2n1 | inactive: -10.7% |  |

Further entries:

| Compound | ratio change, negative = inhibition | Potency |
| --- | --- | --- |
| CCN(CC)c1ccc(/C=N/NC(=O)c2cccc(S(=O)(=O)N3CCOCC3)c2)c(O)c1 | inconclusive: 4.81% [at 46 µM] |  |
| S=C(NCc1ccco1)Nc1ccc(Cl)cc1 | inconclusive: -47.5% |  |
| COc1ccc(-c2nc(-c3ccccc3)[nH]c(=O)c2C#N)cc1 | inactive: -8.1% |  |
| Cc1cc(OCCn2ccnc2)ccc1C(C)C | inconclusive: -23.8% |  |
| COc1cccc(-n2c(SCc3ccc(F)cc3)nc3c([nH]c4ccccc43)c2=O)c1 | inconclusive: 12.2% [at 46 µM] |  |
| COc1ccc(N=C(C)C2=C(O)CSC2=O)cc1 | inactive: 2.91% |  |
| C=CCN1C2CCCC1CC(NC(=S)Nc1cccc(OC)c1)C2 (configuration not stated) | inconclusive: -16.8% [at 46 µM] |  |
| O=C(NCc1ccco1)c1cnn2c(C(F)(F)F)cc(-c3cccs3)nc12 | inconclusive: 12.9% |  |
| CCCCc1nc(SCC(=O)Nc2ccc(S(N)(=O)=O)cc2)n[nH]1 | inconclusive: 15.5% [at 46 µM] |  |
| COc1ccc(OC)c(-n2cnc3cc(C(=O)O)ccc32)c1 | inactive: -1.59% |  |
| Cc1cccc(-c2noc(CCC(=O)NCc3ccco3)n2)c1 | inactive: 3.07% |  |
| Cc1ccc(-n2nc(C)c3c2OC(N)=C(C#N)C3c2ccc(C)o2)cc1 (configuration not stated) | inactive: -19% |  |
| C/C(=N\NC(=O)c1ccccc1)c1cc2cc([N+](=O)[O-])ccc2oc1=O |  | inconclusive: 35.5 µM [falling, single point] |
| O=C(c1cc2nc(-c3cccs3)cc(C(F)(F)F)n2n1)N1CCCc2ccccc21 | inactive: 12.8% |  |
| COc1ccc(C)cc1NC(=O)C(=O)NCC(c1cccnc1)N1CCN(c2ccccc2F)CC1 (configuration not stated) | inactive: -22.5% [at 46 µM] |  |
| O=C1CC(c2ccccc2)Oc2ccccc21 (configuration not stated) | inactive: -4.24% |  |
| CCOC(=O)c1c(C)c(C(=O)NCc2ccccc2OC)c(C)n1C | inactive: 5.03% |  |
| Cc1nnc(SCC(=O)N2CC(=O)Nc3ccccc32)n1-c1ccccc1 | inconclusive: 7.28% |  |
| Cc1ccc2nc(N3CCN(C=O)CC3)nc(-c3ccccc3)c2c1 | inactive: -8.45% |  |
| CCOc1cc(CNC(=O)C2CCN(c3nc4ccccc4[nH]3)CC2)cc(OCC)c1OCC | inconclusive: 4.95% [at 46 µM] |  |
| O=C(Nc1ccccc1)c1ccc(COc2ccccc2)cc1 | inconclusive: 27.9% [at 46 µM] |  |

| Compound | ratio change, negative = inhibition | Potency |
| --- | --- | --- |
| N#CC12CCCCC1CC1CCCCC1(C#N)N2Cc1cccnc1 (configuration not stated) | inactive: 5.47% |  |
| CCOc1ccc(NC(=O)COC(=O)c2ccc3c(c2)C(=O)N(CCc2ccccc2)C3=O)cc1 | inconclusive: 4.61% |  |
| Cc1nn2c(=O)cc(COC(=O)c3ccccc3NC(=O)c3cccs3)nc2s1 | inconclusive: 12.5% [at 46 µM] |  |
| CCNC(=O)COC(=O)c1cc(-c2ccccc2)nn1-c1ccccc1 | inactive: -1.76% [at 46 µM] |  |
| O=C(Nc1cccnc1Cl)c1cc([N+](=O)[O-])ccc1Cl | inconclusive: -15.3% [at 46 µM] |  |
| CCN1CCN(c2ccc(NC(=O)CCc3c(C)nc4c(-c5ccc(F)cc5)c(C)nn4c3C)cc2)CC1 | inconclusive: 24.3% [at 46 µM] |  |
| COc1cccc(/C=N/NC(=O)C(=O)NCc2ccco2)c1OC | inactive: -3.27% |  |
| CC(C)OC(=O)CSc1nnc(-c2ccc([N+](=O)[O-])cc2)o1 | inconclusive: 9.53% [at 46 µM] |  |
| CCOc1ccc(C(=S)NC2CCCCC2)cc1 | inactive: -3.24% |  |
| CN1CCN(Cc2c(O)ccc3cc(-c4ccc(Cl)cc4)c(=O)oc23)CC1 |  | inconclusive: 7.08 µM [inhibitor, full curve, poor fit] |
| COc1ccc(N/C(=C(/C(Cl)=C(Cl)Cl)[N+](=O)[O-])n2nnc3ccccc32)cc1 | inactive: 3.98% |  |
| O=C(CN1CCN(c2ccccc2F)CC1)Nc1ccccc1F | inconclusive: 13% |  |
| OC(COc1ccccc1CNCc1cccnc1)CN1CCc2ccccc2C1 (configuration not stated) | inconclusive: -19.8% [at 46 µM] |  |
| COc1ccc(/C=C2/SC(=O)N(CCC(=O)Nc3ccc(C)cc3)C2=O)cc1OC | inactive: -5.78% |  |
| CCOC(=O)c1sc(NC(=O)CSc2nnnn2-c2ccc(C)cc2C)nc1C | inactive: 0.984% |  |
| N#Cc1c(Oc2ccc3ccccc3c2)sc(C(=O)c2ccccc2)c1N |  | inconclusive: 17.8 µM [inhibitor, single point] |
| CC(C)(C)OC(=O)N1CCC(c2c(C(=O)Nc3ccc4c(c3)OCCO4)cnn2-c2ccc(F)cc2F)CC1 | inconclusive: 0.604% [at 46 µM] |  |
| O=C(Nc1cccc(OCc2cc(=O)n3ccccc3n2)c1)c1ccccc1Br | inconclusive: -23% [at 46 µM] |  |
| CC(=O)N1CCc2cc(Br)cc(S(=O)(=O)N3CCCCCC3)c21 | inconclusive: 1.72% |  |
